In all, about 31,000 sequences went through this assay and about 1,400 (4.5%) were called active.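 Rule for the calls: active = median seed-adjusted z-score above 1 or below -1; inactive = the rest.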 The list shows a part of the results.
Assay: Novel Modifiers of Survival Motor Neuron (SMN) Protein: Gene Identification via Genome-wide siRNA Screen;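 note: luminescence tracks full-length SMN protein made from the SMN2 reporter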
Settings: HEK293T SMN2-luciferase reporter, siRNA knockdown, 72 h; actives lie on both sides
Summary of the method: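 Genome-wide siRNA screen (10418 genes, 3 siRNAs each, 1 pmol per well) by reverse transfection in HEK293T cells stably carrying an SMN2-luciferase reporter; luminescence after 72 hours, normalized to negative-control siRNA, log10-transformed, MAD-scored.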

Row | Sequence | median seed-adjusted z-score
1 | GGCAUGAAGUGAAGGAUGATT against ZNF134 | inactive: -0.0978
2 | GAAAUUAAGCUGCAGCUUUTT against CST8 | inactive: -0.0126
3 | AGACGGUGACUUACAAAAATT against ARF6 | inactive: -0.805
4 | GUAUGGAAAUGGGUUUAUATT against PPARA | inactive: 0.113
5 | GAAUAUUUCCUUAUGGUUUTT against UQCRH | inactive: 0.458
6 | GGGUGUACUGCACACGUUATT against EN1 | inactive: 0.761
7 | GACAUAUCCAGUUCAAUCATT against STAM2 | inactive: -0.24
8 | GGAGGUUCCAGAUCGUGGATT against ZNF205 | inactive: -0.468
9 | AACAUUCUCCCGAGACUUATT against CDC14C | inactive: 0.437
10 | GGUGUUACCUGAACACUGUTT against LTBP2 | inactive: 0.0496
11 | CUAUGACUGGAUUAGCGUATT against BEST2 | inactive: 0.415
12 | GAGUUUAAGUUGUCUACGATT against ARHGEF6 | inactive: -0.0593
13 | CCGUGCUCCUCAAUCCUAUTT against NDST1 | inactive: -0.0763
14 | GAAGCUUGCCUAUGCCGUUTT against DDX19A | inactive: 0.183
15 | GAAGGAUCACCAGCACAUATT against DEAF1 | inactive: 0.0416
16 | GCUGUUUGCUGGAUACAAUTT against GNB5 | inactive: -0.535
17 | CGACAUAUGAGGCUUCAUATT against ZNF599 | inactive: 0.0896
18 | CUGUGUGACUGGGUCCCAATT against ASGR2 | inactive: 0.0772
19 | GAACUAAUCCUGUUCAACATT against ATXN3 | inactive: 0.04
20 | AAGCAGUUGUUAAACCAGATT against TRIM54 | inactive: -0.219
21 | GCUAGUCUUCUGGAAGUUATT against SRPRB | inactive: 0.000693
22 | GCUGUUGUCUUUCACCCAATT against HMBS | inactive: 0.422
23 | CAACAACAGAAUACUCAGATT against PHF10 | inactive: -0.199

Row | Sequence | median seed-adjusted z-score
24 | GCUACAUCGAUUACACCAATT against ZNF462 | inactive: 0.0487
25 | CCUUUACCACUGCUCGAAATT against ABCD2 | inactive: -0.102
26 | AGUUCCUAUUGUUGCCCUUTT against RENBP | inactive: 0.587
27 | AGAGGAUUCGUGCAGAGAATT against TNNT3 | inactive: -0.293
28 | GAAAGAACACGUAAAUGUATT against GSPT2 | inactive: 0.846
29 | CAGCUUCGAUAUAAGGAAATT against MYST2 | active: -1.46
30 | GAGGUUUUCCAGACGGUGATT against EHD3 | inactive: 0.569
31 | GGAAUAUCAUUGCAUACGATT against PTPRM | inactive: 0
32 | GAUUUGACUUUAUCUACGATT against MYO10 | inactive: 0.8
33 | CAACCAAGGUCAGUCUUAUTT against TFCP2L1 | inactive: -0.246
34 | GAACCAAGAGAACCACGUATT against SLC25A6 | inactive: -0.928
35 | GGCUGAAAGGGAUCGGUUATT against GYS2 | inactive: 0.0101
36 | CCAUGUCUUGGGAACCGAUTT against PREP | inactive: 0.0883
37 | CUGUGGUCUCUGUCUCUUATT against GPR75 | inactive: 0
38 | GAAGCUCUACUCACAGUUUTT against GSTM2 | inactive: -0.464
39 | GCAGGGAUAUUAGGCGCAATT against G3BP2 | inactive: -0.336
40 | CCAUAGAUACUUGUCGUGATT against RNF34 | inactive: -0.0857
41 | ACACCACUGCCGAUCCAAATT against PER1 | inactive: 0.176
42 | CCUGUUUGUUUAUAACGGATT against ITGA11 | inactive: 0.496
43 | CCAUCUGCAAAAUCCCGGATT against FOSL1 | inactive: -0.431
44 | CUCUCGUACUUUGAACCUATT against PANK3 | inactive: -0.185
45 | AGAGGGCUCUGAACCAGUATT against LEPREL2 | inactive: 0.0022
46 | CUGGGUUUGUGAAAGGAAATT against SLC7A2 | inactive: -0.245

Row | Sequence | median seed-adjusted z-score
47 | GAAUGUGGACAGUUACUAATT against PHF6 | inactive: -0.268
48 | GACUGGACCUCAGGAGUUATT against FOLR2 | inactive: -0.0835
49 | CCACCGCAGGCAAACUUGUTT against SDS | inactive: 0.128
50 | CCAGAGUUGUUGCUCGAUUTT against USP19 | inactive: 0.47
51 | GGCUUUUAGCCUGAAGAAATT against PRDM5 | inactive: -0.463
52 | CACCAUUCCCAAUGAUCUATT against PCBP3 | inactive: -0.0373
53 | AGUUAUUGGAUGAAGCCUUTT against SDS | inactive: 0.128
54 | GGACCUCCACUAUACGCAUTT against PCDHB9 | inactive: 0.516
55 | GGGCGCAUCUAUACGUUCATT against MYO1D | inactive: -0.201
56 | GGAAUGAUACCAUACCGAATT against NUP93 | active: 1.01
57 | CCUCAACUCCUUGCACUCATT against ZMIZ2 | inactive: -0.27
58 | GAUCAGUGUUUAGUUCGAUTT against ARID4A | inactive: 0.601
59 | GCUCCUUUCAAGCACCUGATT against ADARB2 | inactive: -0.249
60 | GGAAUUCCAAAUCUACGUATT against ACO1 | inactive: -0.197
61 | GGACAAUAUUAUGCUCGAATT against BMPR2 | inactive: 0
62 | CAUCCAUUCGGGUUACGAATT against PER1 | inactive: 0.176
63 | GCUCCGAAGUGGUGAUCAATT against CHRM1 | active: 1.1
64 | CAGCAGAACGUGUACGAGATT against ZBTB7A | inactive: -0.344
65 | CCAACGUGGUCCAACGUUUTT against NME3 | inactive: -0.0125
66 | GAUGUAUUCGGAAAAUGGATT against ZDHHC7 | inactive: 0.0962
67 | GCACGGAUUCUAACCAGGATT against CDH20 | inactive: -0.397
68 | GACCUGUAAUCGGUAUGAATT against PLSCR3 | inactive: 0
69 | GGCAUCGUAUGGUCAAGGATT against LAMA1 | inactive: 0.494

Individual results from the list.
Entry of GACCUGUAAUCGGUAUGAATT against PLSCR3 under median seed-adjusted z-score: inactive: 0
Entry of CAUCCAUUCGGGUUACGAATT against PER1 under median seed-adjusted z-score: inactive: 0.176
Entry of GGAAUGAUACCAUACCGAATT against NUP93 under median seed-adjusted z-score: active: 1.01

Reference: PubChem BioAssay AID1347426 (Functional Genomics Laboratory (NCATS/FGL), 2020)
